Some of the results follow. These are further read-outs of the screen, such as a control signal, another cell line or another target. No call is given for them. Most of these compounds were active or inconclusive in the main read-out, so they are no random draw. Potencies come from curve fits of mixed quality, noted in brackets.
Assay: qHTS Assay for Lipid Storage Modulators in Drosophila S3 Cells;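 on cell number change: cells counted by Cell Tracker Red CMTPX staining in the red channel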
Details: BODIPY lipid droplet fluorescence, 18-24 h; for cell number change: measured here: cell count max response, cells fed with added oleic acid
How it was run: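 Drosophila S3 cells got compounds at several concentrations plus oleic acid (400 uM solution). Laser-scanning cytometry with 488 nm excitation read lipid droplets at 500-530 nm and cells at 575-640 nm. Percent activity was relative to 20 uM Triacsin C.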

[1] = measured here: cell number channel AC50, cells fed with added oleic acid
[2] = measured here: lipid fluorescence (Fed channel) AC50, cells fed with added oleic acid

For CSc1nnc(-c2sccc2OCc2ccccc2)n1C, the cell number change was -12.1% and the AC50 [1] was 2.31 µM [rising, single point].

Work on CCOC(=O)c1c(C)[nH]c2cc(Br)c(OC)cc12 yielded a cell number change of -22.1%.

In the case of O=C(CS(=O)CC(=O)Nc1ccccc1-c1ccccc1)Nc1ccc(F)cc1 (configuration not stated), the cell number change is reported as -0.42% and the AC50 [2] is reported as 1.84 µM [rising, partial curve].

In the case of CCCN(C(=O)CSCC(=O)Nc1cccc(C)c1)c1c(N)n(Cc2ccccc2)c(=O)[nH]c1=O, the cell number change is reported as -9.97%.

For Cc1cccc(-n2ncc3c2CCCC3NC(=O)C2(C(N)=O)CC2)c1C (configuration not stated), the cell number change was -22.9%, the AC50 [1] was 2.91 µM [falling, single point] and the AC50 [2] was 10.3 µM [falling, partial curve].

With Cc1cccc(CN2CCCC(C(=O)Nc3ccc(-c4cscn4)cc3)C2)c1 (configuration not stated) the cell number change was 42.2% and the AC50 [1] was 9.2 µM [rising, partial curve, poor fit].

In the case of CCOc1ccc(NC(=O)CN2CCN(CC(=O)Nc3ccc4c(c3)OCO4)CC2)cc1, the cell number change is reported as 14.5% and the AC50 [2] is reported as 29.1 µM [rising, single point].

In the case of COc1ccc(CN(CCc2ccccc2)Cc2ccccc2)cc1OC, the cell number change is reported as 23.2%, the AC50 [1] is reported as 0.231 µM [rising, full curve, poor fit] and the AC50 [2] is reported as 23.1 µM [rising, partial curve].

With Cc1ccc(S(=O)(=O)N(C)CCCC(=O)NC(C)(C)C)cc1 the cell number change was -7.32%, the AC50 [1] was 4.11 µM [falling, single point] and the AC50 [2] was 6.51 µM [falling, full curve, poor fit].

In the case of CN1CC(=O)N/C1=N\C(=O)Nc1ccc2c(c1)N(C)C(=O)CS2, the cell number change is reported as 79.8%, the AC50 [1] is reported as 3.66 µM [rising, partial curve, poor fit] and the AC50 [2] is reported as 3.26 µM [rising, partial curve].

For CCC(=O)N(Cc1cc2cc(OC)ccc2[nH]c1=O)c1cccc(C)c1, the cell number change was 0.68% and the AC50 [2] was 10.3 µM [rising, partial curve].

For CCN(CC)S(=O)(=O)c1ccc(NC(=O)c2nc3nc(C)cc(C)n3n2)cc1, the cell number change was -10.6% and the AC50 [2] was 20.6 µM [falling, partial curve].

In the case of O=S(=O)(NCc1ccc(F)cc1)c1ccc2c(c1)OCCO2, the cell number change is reported as -32.4%, the AC50 [1] is reported as 32.6 µM [falling, single point] and the AC50 [2] is reported as 0.00461 µM [falling, full curve, poor fit].

Work on O=C(COC(=O)c1cccnc1SCC(=O)NCc1ccccc1)NCc1ccccc1 yielded a cell number change of -28.6%.

For CCN1C(=O)S/C(=C/c2c(OCc3ccc(C(=O)O)cc3)ccc3ccccc23)C1=O, the cell number change was -9.92% and the AC50 [2] was 6.51 µM [rising, single point].

Compound CCOc1cc(S(=O)(=O)N(Cc2ccccc2)Cc2ccccc2)c(OCC)cc1-n1cnnn1 has a cell number change of -16.4%.

With CCCCn1c(NC(C)=O)c(C#N)c2nc3ccccc3nc21 the cell number change was -33.8%, the AC50 [1] was 5.8 µM [falling, full curve, poor fit] and the AC50 [2] was 7.31 µM [falling, partial curve].

For CC(=O)Nc1ccc(NS(=O)(=O)Cc2ccccc2)cc1, the cell number change was -8.53%, the AC50 [1] was 0.0517 µM [falling, full curve, poor fit] and the AC50 [2] was 0.366 µM [falling, full curve, poor fit].

With CN(C)CCN(C(=O)c1ccc2c(c1)CCCC2)c1nc2c(F)cccc2s1 the cell number change was 36.9% and the AC50 [2] was 0.731 µM [rising, full curve, poor fit].

In the case of CCN(CC)CCCN1C(=O)C(O)=C(C(C)=O)C1c1cccc(OC)c1 (configuration not stated), the cell number change is reported as -23.6% and the AC50 [2] is reported as 3.26 µM [falling, partial curve].

With Cn1cnnc1SCC(=O)Nc1ccc2nc(SCc3ccccc3F)sc2c1 the cell number change was 40.8% and the AC50 [1] was 29.1 µM [rising, single point].

With Cc1cccc(-c2nc(C#N)c(NCC3CCCO3)o2)c1 (configuration not stated) the cell number change was 16.5% and the AC50 [2] was 5.8 µM [rising, full curve, poor fit].

With CC(C)(C)c1nn(-c2ccccc2)c2[nH]c(=O)c(CNCc3ccc4c(c3)OCO4)cc12 the cell number change was -36.3%, the AC50 [1] was 6.51 µM [falling, partial curve] and the AC50 [2] was 7.31 µM [falling, partial curve].

In the case of CCOCCCNC(=O)c1cc(Nc2ccc(OC)cc2OC)nc2ccccc12, the cell number change is reported as -12.5% and the AC50 [2] is reported as 29.1 µM [falling, single point].

In the case of COC(=O)c1ccc(C(=O)OC)c(NC(=O)CCC(=O)O)c1, the cell number change is reported as -2.27% and the AC50 [2] is reported as 3.26 µM [rising, partial curve].

In the case of Cc1ccc(-c2cc(C(=O)OC3CCOC3=O)c3ccccc3n2)c(C)c1 (configuration not stated), the cell number change is reported as 8.27% and the AC50 [2] is reported as 0.291 µM [falling, partial curve, poor fit].

In the case of C=CCN(c1ccccc1)S(=O)(=O)c1cccc(C(=O)N2CCCC2)c1, the AC50 [1] is reported as 2.31 µM [rising, partial curve].

In the case of CCn1cnc2sc(C(=O)Nc3ccccc3OC)c(C)c2c1=O, the cell number change is reported as 18.4% and the AC50 [2] is reported as 0.206 µM [rising, full curve].

With CC(C)C(=O)Nc1nc2c(ncn2C2CC(O)C(CO)O2)c(=O)[nH]1 (configuration not stated) the cell number change was 1.31% and the AC50 [2] was 18.4 µM [falling, single point].

For COc1ccc(NC(=O)COc2cccc3c2CCN(Cc2cccnc2)C3=O)c(OC)c1, the cell number change was -31.4%, the AC50 [1] was 11.6 µM [falling, single point] and the AC50 [2] was 20.6 µM [falling, partial curve].

For Cc1ccc(N2C(=O)CC(Cn3nc(C)cc3C)C2=O)cc1 (configuration not stated), the cell number change was 1.02% and the AC50 [2] was 0.82 µM [falling, full curve, poor fit].

For CCNC(=O)/C(=C\C=C\c1ccccc1)NC(=O)c1ccc(Br)o1, the cell number change was -10.3% and the AC50 [2] was 18.4 µM [rising, partial curve].

With O=C(NCC1COc2ccccc2O1)c1cccc(S(=O)(=O)NCc2ccccc2)c1 (configuration not stated) the cell number change was -5.84%.

In the case of O=C1CCc2cc(NS(=O)(=O)c3ccc([N+](=O)[O-])cc3)cc3c2N1CC3, the cell number change is reported as -10.5%.

With Cc1occc1-c1nnc(SCC(=O)Nc2ccccc2)n1Cc1ccccc1 the cell number change was 8.99% and the AC50 [2] was 0.366 µM [rising, full curve].

In the case of Cc1ccc(SCC(=O)OCC(=O)N(C)CC(=O)Nc2ccc(F)cc2)cc1C, the cell number change is reported as -85.1% and the AC50 [1] is reported as 13 µM [falling, partial curve].

In the case of CC1CCN(CCCNC(=O)c2ccc(N3CCCC3=O)cc2)CC1, the cell number change is reported as -36.9% and the AC50 [1] is reported as 16.4 µM [falling, partial curve, poor fit].

Compound O=C(Nc1ccccc1)/C(=C\c1ccco1)NC(=O)c1ccco1 has a cell number change of -17.5%.

CC(=O)c1cccc(NC(=O)CC2Oc3ccc(C)cc3NC2=O)c1 (configuration not stated) showed a cell number change of -4.26%.

With CCN1CCN(CCNC(=O)c2ccc(/C=C3/Sc4ccccc4N(Cc4cccc(Cl)c4)C3=O)cc2)CC1 the cell number change was -18.4% and the AC50 [2] was 29.1 µM [falling, single point].

For Cc1nnc2n(C3CCCCC3)c(=O)c3c4c(sc3n12)COC(C)(C)C4, the cell number change was -2.33% and the AC50 [2] was 2.91 µM [falling, full curve].

For CC1CCN(C(=O)C2COc3ccccc3O2)CC1 (configuration not stated), the cell number change was 12.6%, the AC50 [1] was 0.461 µM [falling, partial curve, poor fit] and the AC50 [2] was 0.58 µM [falling, partial curve, poor fit].

In the case of Cc1ccc(CNC(=O)c2ccc(F)c(S(=O)(=O)N3CCOCC3)c2)cc1, the AC50 [1] is reported as 3.26 µM [rising, single point].

For COc1ccc(OCCCC(=O)NCc2ccco2)cc1, the cell number change was -50.8% and the AC50 [1] was 2.59 µM [falling, full curve].

With Fc1ccccc1CNc1cc(Cl)cc(Cl)c1 the cell number change was -62.6% and the AC50 [1] was 29.1 µM [falling, single point].

In the case of COc1ccc(NC(=O)CN2C(=O)COc3ccc(S(=O)(=O)N4CCOCC4)cc32)cc1Cl, the cell number change is reported as 6.75% and the AC50 [2] is reported as 6.51 µM [rising, single point].

In the case of CC(=O)NC(=S)Nc1ccc([N+](=O)[O-])cc1C, the cell number change is reported as -11.1% and the AC50 [1] is reported as 0.651 µM [rising, partial curve, poor fit].

With O=C(COC(=O)c1ncc(Cl)c(Cl)c1Cl)c1ccc(Cl)s1 the cell number change was -41.8%, the AC50 [1] was 10.3 µM [falling, partial curve, poor fit] and the AC50 [2] was 25.9 µM [falling, single point].

For O=C(CNC(=O)C1CCCCC1)Nc1ccccc1, the cell number change was -2.67% and the AC50 [1] was 0.731 µM [rising, partial curve, poor fit].

In the case of Nc1nc(-c2ccco2)nn1C(=O)c1ccccc1, the cell number change is reported as 16.6% and the AC50 [2] is reported as 29.1 µM [rising, single point].

Compound COc1ccc(CN2CCSCC2)cc1O has a cell number change of -12.1%.

For CCOC(=O)Cn1cc(C=O)c2ccccc21, the cell number change was -12% and the AC50 [2] was 29.1 µM [falling, single point].

With CCC1CCCCN1CCCNC(=O)c1ccc2c(c1)N(Cc1c(F)cccc1Cl)C(=O)CS2 (configuration not stated) the cell number change was 51.5% and the AC50 [1] was 29.1 µM [rising, single point].

In the case of CC(Oc1ccc(Cl)cc1Cl)c1nc(-c2ccc(NC(=O)c3ccncc3)cc2)no1 (configuration not stated), the cell number change is reported as -52.7%, the AC50 [1] is reported as 7.31 µM [falling, partial curve] and the AC50 [2] is reported as 6.51 µM [falling, partial curve].

For CC1=CCC2C(=O)N(c3ccccc3OC(=O)c3ccccc3F)C(=O)C2C1 (configuration not stated), the cell number change was -2.82% and the AC50 [2] was 0.58 µM [rising, full curve].

COc1ccccc1-c1c(C)oc2cc(OCC(=O)OCc3ccccc3)ccc2c1=O gave a cell number change of 0.367%.

With O=C(CCNC(=O)c1ccccc1Cl)Nc1nc(-c2ccc3ccccc3c2)cs1 the cell number change was 3.34% and the AC50 [2] was 0.58 µM [rising, single point].

With CCOC(=O)c1nn(-c2ccc3c(c2)CCN3C(C)=O)cc1O the cell number change was -16.8% and the AC50 [2] was 0.184 µM [rising, full curve, poor fit].

CCCOc1ccc(-c2nc(C#N)c(N3CCc4ccccc4C3)o2)cc1 showed a cell number change of 6.83%.

— PubChem BioAssay AID2685 (National Center for Advancing Translational Sciences (NCATS), 2010)
